Assay results as given in publication PMC10024682.
No constants are given. Whether binding was seen depends on the method and setting. Binding seen in cells or lysates may run through a third protein. Some entries that bind do so weakly or less than the wild type.

Columns and labels:
[1] = molecular target: T1, MAD1-mNG (doxycycline-induced, Tet-On cassette) (human) (UniProt Q9Y6D9); assay: co-IP; mNeonGreen-Trap agarose on cleared lysates of doxycycline-induced, thymidine-nocodazole arrested HeLa-A12 cells (endogenous MAD1 not knocked down); 75 mM HEPES pH 7.5, 150 mM KCl, 10% glycerol, 1% CHAPS in lysis; 4 °C; immunoblot
T1 sequence: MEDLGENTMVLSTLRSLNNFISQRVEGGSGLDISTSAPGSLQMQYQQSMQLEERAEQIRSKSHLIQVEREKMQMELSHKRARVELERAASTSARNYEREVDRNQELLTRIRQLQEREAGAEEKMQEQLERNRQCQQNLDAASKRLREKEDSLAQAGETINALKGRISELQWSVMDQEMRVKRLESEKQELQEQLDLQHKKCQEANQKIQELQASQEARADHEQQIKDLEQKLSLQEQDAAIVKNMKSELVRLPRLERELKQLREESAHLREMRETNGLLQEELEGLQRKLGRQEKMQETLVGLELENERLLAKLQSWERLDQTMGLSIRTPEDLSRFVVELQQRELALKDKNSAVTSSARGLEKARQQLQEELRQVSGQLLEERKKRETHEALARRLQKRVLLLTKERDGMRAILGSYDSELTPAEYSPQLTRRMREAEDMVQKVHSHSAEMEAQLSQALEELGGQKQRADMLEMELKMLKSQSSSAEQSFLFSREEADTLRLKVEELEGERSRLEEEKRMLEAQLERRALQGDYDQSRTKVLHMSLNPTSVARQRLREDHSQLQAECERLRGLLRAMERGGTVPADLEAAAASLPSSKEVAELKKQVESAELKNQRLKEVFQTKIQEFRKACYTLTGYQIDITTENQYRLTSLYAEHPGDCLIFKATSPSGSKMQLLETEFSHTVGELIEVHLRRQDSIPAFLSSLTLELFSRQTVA

[2] = molecular target: T2, MAD1^ΔL-mNG (doxycycline-induced, Tet-On cassette) (human) (UniProt Q9Y6D9); assay: as above
T2 sequence: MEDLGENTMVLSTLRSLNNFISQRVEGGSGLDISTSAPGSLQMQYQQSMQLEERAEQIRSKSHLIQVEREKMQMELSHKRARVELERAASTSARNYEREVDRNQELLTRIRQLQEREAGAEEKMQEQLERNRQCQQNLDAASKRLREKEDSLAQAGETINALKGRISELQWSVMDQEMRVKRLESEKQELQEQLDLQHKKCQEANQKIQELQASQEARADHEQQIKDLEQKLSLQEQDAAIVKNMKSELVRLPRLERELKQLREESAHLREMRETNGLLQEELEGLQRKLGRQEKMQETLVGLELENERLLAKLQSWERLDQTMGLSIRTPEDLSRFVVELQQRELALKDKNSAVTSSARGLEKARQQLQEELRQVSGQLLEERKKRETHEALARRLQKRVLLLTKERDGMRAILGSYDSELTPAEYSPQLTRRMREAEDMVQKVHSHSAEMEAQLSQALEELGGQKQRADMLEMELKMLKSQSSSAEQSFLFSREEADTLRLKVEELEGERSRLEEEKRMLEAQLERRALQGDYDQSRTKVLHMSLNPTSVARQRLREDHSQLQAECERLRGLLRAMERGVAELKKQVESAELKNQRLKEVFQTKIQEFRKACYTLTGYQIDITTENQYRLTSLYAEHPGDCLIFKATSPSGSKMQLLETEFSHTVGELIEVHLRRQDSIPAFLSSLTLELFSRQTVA

binding [1]: binds
binding [2]: binds
B1: endogenous MAD1 (protein, UniProt Q9Y6D9-1 1-718)
chain: T1 sequence
